Measurements: PMC5542435
Results are given in words; binding and its absence hold for the method and conditions named. Some results given as binding are weak or reduced against the parent protein; the word gives no strength. Sequences can lack the tags named with a protein.

Biological target: T1, FliP-3×FLAG (chromosomally encoded, expressed from the native fliP locus) (S. enterica serovar Typhimurium LT2) (UniProt P54700)
T1 sequence: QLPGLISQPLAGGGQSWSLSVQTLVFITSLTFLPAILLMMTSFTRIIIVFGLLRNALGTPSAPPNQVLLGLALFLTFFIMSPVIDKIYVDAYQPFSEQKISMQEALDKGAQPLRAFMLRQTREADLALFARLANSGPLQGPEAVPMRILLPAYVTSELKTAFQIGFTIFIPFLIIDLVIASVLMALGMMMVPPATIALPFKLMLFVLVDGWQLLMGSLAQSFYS
Assay: native gel or EMSA; BN-PAGE (3%–12%) of crude membrane extracts solubilised in DDM, strain with chromosomal FliP-3×FLAG; FliP-containing complexes found by anti-FLAG Western blot, selected bands analysed by LC-MS/MS

B1: FliR (untagged, endogenous in S. Typhimurium) (protein, UniProt P54702 1-264)
chain: MIQVTSEQWLYWLHLYFWPLLRVLALISTAPILSERAIPKRVKLGLGIMITLVIAPSLPANDTPLFSIAALWLAMQQILIGIALGFTMQFAFAAVRTAGEFIGLQMGLSFATFVDPGSHLNMPVLARIMDMLAMLLFLTFNGHLWLISLLVDTFHTLPIGSNPVNSNAFMALARAGGLIFLNGLMLALPVITLLLTLNLALGLLNRMAPQLSIFVIGFPLTLTVGIMLMAALMPLIAPFCEHLFSEIFNLLADIVSEMPINNNP
- binding: binds
